Measured values reported in PMC4694719.
No constants are given. Whether binding was seen depends on the method and setting. Some entries that bind do so weakly or less than the wild type. Sequences can lack the tags named with a protein.

Target: T1, COP1 SUPPRESSOR 2 (CSU2), full length, LexA fusion (Arabidopsis thaliana) (UniProt F4HVZ5)
T1 sequence: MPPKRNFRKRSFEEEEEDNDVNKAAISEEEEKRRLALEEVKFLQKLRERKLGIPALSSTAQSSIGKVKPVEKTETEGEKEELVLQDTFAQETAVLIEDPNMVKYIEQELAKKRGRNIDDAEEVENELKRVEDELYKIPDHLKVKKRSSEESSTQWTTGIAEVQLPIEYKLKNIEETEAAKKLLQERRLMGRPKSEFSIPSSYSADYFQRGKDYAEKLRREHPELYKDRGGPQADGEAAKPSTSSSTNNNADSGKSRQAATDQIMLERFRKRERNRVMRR
Assay: two-hybrid; LexA-based yeast two-hybrid system (BD Clontech), LexA-CSU2 fusions and B42AD-COP1 fusions co-transformed into yeast strain EGY48, β-galactosidase activity

B1: COP1 N282, B42 activation domain fusion (domain or fragment, UniProt P43254 1-282)
chain: MEEISTDPVVPAVKPDPRTSSVGEGANRHENDDGGSGGSEIGAPDLDKDLLCPICMQIIKDAFLTACGHSFCYMCIITHLRNKSDCPCCSQHLTNNQLYPNFLLDKLLKKTSARHVSKTASPLDQFREALQRGCDVSIKEVDNLLTLLAERKRKMEQEEAERNMQILLDFLHCLRKQKVDELNEVQTDLQYIKEDINAVERHRIDLYRARDRYSVKLRMLGDDPSTRNAWPHEKNQIGFNSNSLSIRGGNFVGNYQNKKVEGKAQGSSHGLPKKDALSGSDS
- binding: binds
